# Experimental data published in patent publication US5100873A (priority 1988, dated 1992).
# HELM strings list residues between dots; [ac] is acetyl, [am] amide, other brackets name non-standard units.
# Assay: general procedure: solution-phase peptide synthesis; DCC/HOBt; ECC/NMM (mixed anhydride)
# Settings: coupling step, HCl
row,Substance,step yield [%]
1,Boc-pMel-Gln-Trp-Ala-Gly-His(Dnp)-Leu-Met-NH2,95.6
2,Boc-pMel-Gln-Trp-Ala-Val-Gly-OBzl,91.5
3,PEPTIDE1{[Boc].[mMel].L.G.T.Q.W.A.V.G.L.M.[am]}$$$$V2.0,72.7
4,PEPTIDE1{[Boc].[pMel].Q.W.A.V.G.[dF].L.M.[am]}$$$$V2.0,88.8

# Same assay, conditions: late stage modification step, HCl
row,Substance,step yield [%]
1,H-pMel-Gln-Trp-Ala-Val-Gly-His(Dnp)-Leu-Met-NH2.HCl,83.5
2,PEPTIDE1{[Boc].[pMel].Q.W.A.V.G}$$$$V2.0,63
3,PEPTIDE1{[pMel].Q.W.A.V.G.H.L.M.[am]}$$$$V2.0,91
